{"source": "PubChem BioAssay AID1224830, NIAID | 2016", "aim": "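Host factors that control LPS-induced TNF expression in human macrophages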 (primary screen)", "system": "human THP-1 monocytic leukaemia cells, TNF dual-luciferase reporter clone, PMA-differentiated to macrophage-like cells", "knock-down reagent": "siRNA pool against human genes, 50 nM", "timing": "LPS for 4 h, given about 3 days after siRNA transfection", "treatment": "bacterial LPS (TLR4 ligand), 10 ng/ml", "measured": "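Ratio of firefly to renilla light, scaled to the plate median and expressed as a robust z-score per replicate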", "direction": "TNF reporter robust z-score: higher = stronger TNF reporter response to LPS", "hit rule": "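a well is active when its z-score exceeds 2.8 or falls below -1.5; control wells carry no call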", "note": "Shown is a random part of about 18,000 deposited reagents. In the full data, about 2,900 (16%) got an active call. 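Calls are made per well; low scores hint the gene aids the LPS response, high scores that it dampens it.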 Repeated entries: four replicate wells of each siRNA pool."}
{"gene knocked down": "SLC22A8", "TNF reporter robust z-score": 0.13, "Outcome": "inactive"}
{"gene knocked down": "SLC22A8", "TNF reporter robust z-score": 0.59, "Outcome": "inactive"}
{"gene knocked down": "SLC22A8", "TNF reporter robust z-score": 1.49, "Outcome": "inactive"}
{"gene knocked down": "SLC22A8", "TNF reporter robust z-score": 0.77, "Outcome": "inactive"}
{"gene knocked down": "JMJD6", "TNF reporter robust z-score": -1.07, "Outcome": "inactive"}
{"gene knocked down": "JMJD6", "TNF reporter robust z-score": -0.3, "Outcome": "inactive"}
{"gene knocked down": "JMJD6", "TNF reporter robust z-score": -0.55, "Outcome": "inactive"}
{"gene knocked down": "JMJD6", "TNF reporter robust z-score": -0.27, "Outcome": "inactive"}
{"gene knocked down": "VGLL2", "TNF reporter robust z-score": -1.53, "Outcome": "active"}
{"gene knocked down": "VGLL2", "TNF reporter robust z-score": -1.36, "Outcome": "inactive"}
{"gene knocked down": "VGLL2", "TNF reporter robust z-score": -1.18, "Outcome": "inactive"}
{"gene knocked down": "VGLL2", "TNF reporter robust z-score": -1.09, "Outcome": "inactive"}
{"gene knocked down": "ATP6V0C", "TNF reporter robust z-score": -0.35, "Outcome": "inactive"}
{"gene knocked down": "ATP6V0C", "TNF reporter robust z-score": -0.4, "Outcome": "inactive"}
{"gene knocked down": "ATP6V0C", "TNF reporter robust z-score": -0.15, "Outcome": "inactive"}
{"gene knocked down": "ATP6V0C", "TNF reporter robust z-score": -0.1, "Outcome": "inactive"}
{"gene knocked down": "OSGIN2", "TNF reporter robust z-score": -0.01, "Outcome": "inactive"}
{"gene knocked down": "OSGIN2", "TNF reporter robust z-score": 0.46, "Outcome": "inactive"}
{"gene knocked down": "OSGIN2", "TNF reporter robust z-score": 1.96, "Outcome": "inactive"}
{"gene knocked down": "OSGIN2", "TNF reporter robust z-score": 1.64, "Outcome": "inactive"}
{"gene knocked down": "DICER1", "TNF reporter robust z-score": 1.02, "Outcome": "inactive"}
{"gene knocked down": "DICER1", "TNF reporter robust z-score": -0.24, "Outcome": "inactive"}
{"gene knocked down": "DICER1", "TNF reporter robust z-score": -0.43, "Outcome": "inactive"}
{"gene knocked down": "DICER1", "TNF reporter robust z-score": -0.41, "Outcome": "inactive"}
{"gene knocked down": "GPR18", "TNF reporter robust z-score": -0.53, "Outcome": "inactive"}
{"gene knocked down": "GPR18", "TNF reporter robust z-score": 0.16, "Outcome": "inactive"}
{"gene knocked down": "GPR18", "TNF reporter robust z-score": -0.05, "Outcome": "inactive"}
{"gene knocked down": "GPR18", "TNF reporter robust z-score": 1.01, "Outcome": "inactive"}
{"gene knocked down": "PIP4K2B", "TNF reporter robust z-score": -0.52, "Outcome": "inactive"}
{"gene knocked down": "PIP4K2B", "TNF reporter robust z-score": -0.58, "Outcome": "inactive"}
{"gene knocked down": "PIP4K2B", "TNF reporter robust z-score": -0.65, "Outcome": "inactive"}
{"gene knocked down": "MATCAP1", "TNF reporter robust z-score": -0.3, "Outcome": "inactive"}
{"gene knocked down": "MATCAP1", "TNF reporter robust z-score": -0.27, "Outcome": "inactive"}
{"gene knocked down": "MATCAP1", "TNF reporter robust z-score": 0.17, "Outcome": "inactive"}
{"gene knocked down": "MATCAP1", "TNF reporter robust z-score": 2.67, "Outcome": "inactive"}
{"gene knocked down": "FAM24B", "TNF reporter robust z-score": -0.13, "Outcome": "inactive"}
{"gene knocked down": "FAM24B", "TNF reporter robust z-score": -0.18, "Outcome": "inactive"}
{"gene knocked down": "FAM24B", "TNF reporter robust z-score": 0.36, "Outcome": "inactive"}
{"gene knocked down": "FAM24B", "TNF reporter robust z-score": 1.05, "Outcome": "inactive"}
{"gene knocked down": "ARHGAP6", "TNF reporter robust z-score": -0.14, "Outcome": "inactive"}
{"gene knocked down": "ARHGAP6", "TNF reporter robust z-score": 1.78, "Outcome": "inactive"}
{"gene knocked down": "ARHGAP6", "TNF reporter robust z-score": 0.27, "Outcome": "inactive"}
{"gene knocked down": "ARHGAP6", "TNF reporter robust z-score": 2.25, "Outcome": "inactive"}
{"gene knocked down": "PDF", "TNF reporter robust z-score": 1.06, "Outcome": "inactive"}
{"gene knocked down": "PDF", "TNF reporter robust z-score": 1.38, "Outcome": "inactive"}
{"gene knocked down": "PDF", "TNF reporter robust z-score": 2.33, "Outcome": "inactive"}
{"gene knocked down": "PDF", "TNF reporter robust z-score": 3.13, "Outcome": "active"}

Quoted from the listing, 4 entries:
{"gene knocked down": "PIP4K2B", "TNF reporter robust z-score": -0.52, "Outcome": "inactive"}
{"gene knocked down": "PIP4K2B", "TNF reporter robust z-score": -0.58, "Outcome": "inactive"}
{"gene knocked down": "PIP4K2B", "TNF reporter robust z-score": -0.65, "Outcome": "inactive"}
{"gene knocked down": "MATCAP1", "TNF reporter robust z-score": -0.3, "Outcome": "inactive"}
